# PubChem BioAssay AID624297 (National Center for Advancing Translational Sciences (NCATS), 2012)
# Hit rate of the full screen: of about 340,000 compounds, about 6,200 (1.8%) were called active. Calls follow the shape of the dose curve; as a rule, active = well fitted activation curve with a large enough effect; inconclusive = small, poorly fitted or top-dose-only effect; inactive = no such curve, though single readings can be large or run the other way. The inconclusive results got no clear call from the source. Potencies beside an inconclusive call are fits to weak or partial responses and may not hold up.
# Assay: A quantitative high throughput screen for small molecules that induce DNA re-replication in SW480 colon adenocarcinoma cells. Also: nearly all actives have a fitted effect of over 55% in size.
# Conditions: Hoechst DNA content imaging, 48 h; series mostly up to 46.1 µM
# Text: H Molecular Libraries Probe Production Network [MLPCN] NIH Chemical Genomics Center [NCGC] MLPCN Grant: Fast Track K99 CA136555 Assay Provider: Melvin DePamphilis, NICHD, NIH Assay Overview Eukaryotic cells normally restrict genome duplication to once per cell division. When this process is aberrant, DNA re-replication occurs when cells reinitiate DNA replication before the first round of replication is complete. DNA re-replication induces the DNA damage response, arrests cell proliferation, and triggers apoptosis. The cell cycle components cyclin A, Cdt-1, Cdc6 and geminin are critical regulators of this process and their misregulation results in DNA re-replication in normal and cancer cells. To identify compounds that induce re-replication in normal cells, an image-based assay was used to measure DNA content of nuclei, as detected by the fluorescent DNA binding dye, Hoechst. Cell nuclei were imaged by a fluorescence scanning plate imager and compounds that induce DNA re-replication were identified by the increase of nuclei with elevated fluorescence intensity
# For screening, 250 cells in 5 uL/well were dispensed into black clear 1536-well plates (Aurora) using a solenoid-based dispenser. Following transfer of 23 nL compound or DMSO vehicle by a pin tool, the plates were incubated 48 hr at 37 C and 5% CO2. […]
# Potency is read from the fitted curve at half-maximal effect.
row,SMILES,Potency
1,CCCOc1ccc(C2C(C(=O)c3cc4ccccc4o3)=C(O)C(=O)N2c2cc(C)on2)cc1 (configuration not stated),"inconclusive: 29.1 µM [activator, single point]"
2,O=C(Nc1ccc(C(=O)O)cc1)/C(=C\C=C\c1ccccc1)NC(=O)c1cccc(Br)c1,"inconclusive: 0.731 µM [activator, partial curve, poor fit]"
